The list shows a part of the results.

By UniProt entry, the sequences of proteins in these tests, tags left out.
UniProt Q0JBA9, entry or part of it: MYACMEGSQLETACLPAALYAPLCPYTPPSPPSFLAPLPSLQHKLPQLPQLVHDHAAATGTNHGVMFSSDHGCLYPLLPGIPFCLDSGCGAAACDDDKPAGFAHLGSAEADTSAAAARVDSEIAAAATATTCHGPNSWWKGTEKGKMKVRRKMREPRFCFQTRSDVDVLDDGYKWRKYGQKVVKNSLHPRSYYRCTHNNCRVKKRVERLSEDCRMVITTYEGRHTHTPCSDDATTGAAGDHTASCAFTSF

For the experiment, the target named is OsWRKY34 (Oryza sativa, UniProt Q0JBA9 1-250). Kind of experiment: protein-binding microarray (RPBM); PBS, 2% BSA, 51.3 ng/ul salmon testes DNA, 50 uM zinc acetate, 200 nM TF, 25 C, 1 h; high values mean tight binding. Particulars: protein: recombinant; tags: N-terminal polyhistidine and DsRed monomer fusion (pET32a); label: CyDye5-dUTP incorporated in the synthesized complementary strand; 3' TTTTT single-stranded linker to array surface; dsDNA, one strand shown. Summed up:
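The binding signal is fluorescence intensity per array feature (arbitrary units). Readings came from an Axon 4000B scanner after a washed, 2% BSA-blocked, double-stranded custom Agilent array had been incubated for 1 h at 25 °C with 200 nM protein and 50 µM zinc acetate. The protein was a Ni–NTA-purified transcription factor fused N-terminally to polyhistidine and DsRed, expressed in E. coli BL21-CodonPlus.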
As for “AGCCTCCAACTAGTTATTTTTCTTTGAATTTGGCTAGATCCGGAGTCACCTAGTGCAG”, the binding signal is 8390 fluorescence intensity (a.u.).

“ATATGCCTTTTTCATTCACTGGTCTCGCTACACATGCCTGCGGAGTCACCTAGTGCAG”: the binding signal was 8550 fluorescence intensity (a.u.). Consider “TTTCGCTCGCCCATTTTTCTGCGTCCCGGCGGCGGTGGGGCGGAGTCACCTAGTGCAG”, for which the binding signal was 11200 fluorescence intensity (a.u.). The figure for “CATTTAAATCGCCATCACTCCGCGCGCTCTCCCATCCATCCGGAGTCACCTAGTGCAG” is 8870 fluorescence intensity (a.u.).

For “ACTTTATTCTTGCATTATCACACTCCACATAGTACCATTACGGAGTCACCTAGTGCAG”, the binding signal is 12600 fluorescence intensity (a.u.).

As for “GTCTCCTCTTCTAATATTCCTTATTTTTTAATTCCGAATTCGGAGTCACCTAGTGCAG”, the binding signal is 9140 fluorescence intensity (a.u.).

“TCTCCTTAAATCCTTTATATGATGCTAGGGTTCGTGTTTTCGGAGTCACCTAGTGCAG”: the binding signal is 8730 fluorescence intensity (a.u.). “GATTTTTGTGCAGTCTATTCGCCAACTTTGTAATTACCCCCGGAGTCACCTAGTGCAG”: the binding signal was 8130 fluorescence intensity (a.u.).

As to “TTTGTGGCAGATCATACTCGCTGGCTACACCACCACCCACCGGAGTCACCTAGTGCAG”, the binding signal was 10300 fluorescence intensity (a.u.). For the sequence “CGAGATAATCCGTTTTTGTTCCGTATTCAAACTATCCGTACGGAGTCACCTAGTGCAG”, the binding signal is 9120 fluorescence intensity (a.u.). The figure for “CTCTCTAATCCATTGCCTCGTTTTTCTCTATAGACTATCTCGGAGTCACCTAGTGCAG” is 9760 fluorescence intensity (a.u.). In the case of “TGGATACATGGATGGTTGTGGCTGCTTCTCTTAATTCTTCCGGAGTCACCTAGTGCAG”, the binding signal is 11600 fluorescence intensity (a.u.). As for “CTAGAGTCTCCTCTTGCTCTCTTCTCGTCCGCCATTGATGCGGAGTCACCTAGTGCAG”, the binding signal is 8430 fluorescence intensity (a.u.). Consider “ATGATATTGACAATGGGTCTATTCCGTTCAGCTGGGCTGTCGGAGTCACCTAGTGCAG”, for which the binding signal was 8920 fluorescence intensity (a.u.). As to “AACTTGAGCGTTGACCGCTTTGACTCCTCTTCTTTCTCCACGGAGTCACCTAGTGCAG”, the binding signal is 24900 fluorescence intensity (a.u.).

For the sequence “GCTTTATTATCTACAGTATTTTAAGCTCAACTTTTCGTTTCGGAGTCACCTAGTGCAG”, the binding signal was 10100 fluorescence intensity (a.u.). The figure for “ATTTCACATGGCAAGATCCACGATGACTGAATTATCACACCGGAGTCACCTAGTGCAG” is 8200 fluorescence intensity (a.u.); for “CTGTGTTTGAAAGGGGCCCTTAGTTATGCCTTTATTAGACCGGAGTCACCTAGTGCAG” it is 8820 fluorescence intensity (a.u.); for “TCACAATGTAAGACTTTCTAGCACTGCCCACATTCATTTACGGAGTCACCTAGTGCAG” it is 9670 fluorescence intensity (a.u.). With “TCCCTCAAAATTTTGCTCCATTTACCGTTAGCTCAACGACCGGAGTCACCTAGTGCAG”, the binding signal is 9480 fluorescence intensity (a.u.). The figure for “ACACTACTACCCCTTGTTTTTTACATATCTTTTCCTGCTGCGGAGTCACCTAGTGCAG” is 9660 fluorescence intensity (a.u.). For the sequence “AGGCCACCAAGAACGGCAAGCCCGTCCTCTACCTCGTCTTCGGAGTCACCTAGTGCAG”, the binding signal was 8540 fluorescence intensity (a.u.). Regarding “GGCAGCATCTCTCACAGTCACTATTAGTGTCTCCGGCTGTCGGAGTCACCTAGTGCAG”, the binding signal was 9230 fluorescence intensity (a.u.).

On to “ACCCGCCGTCGCTCTCCAACGCGCTCGTCGCGGCGTTCAACGGAGTCACCTAGTGCAG”, for which the binding signal was 8970 fluorescence intensity (a.u.). Then “ACAACTCATCACATTTTAGGCAATTTTGTATCTGTATAGTCGGAGTCACCTAGTGCAG”, with 8850 fluorescence intensity (a.u.); and “CATCTCCGGCCTTCACACAAACACTCACACGAACGACTGACGGAGTCACCTAGTGCAG”, with 9010 fluorescence intensity (a.u.); and “AGAACATATATACTGCATCATCGTTTGCTCTTTAACTTATCGGAGTCACCTAGTGCAG”, with 8080 fluorescence intensity (a.u.). In the case of “CACCGTGGGCGCAAGGTATCGAACTTGCTAGCCTCATCCTCGGAGTCACCTAGTGCAG”, the binding signal was 8160 fluorescence intensity (a.u.).

Turning to “GTGATCGATCGATCTCATCCCCGCACGCGCTCCCTTCACCCGGAGTCACCTAGTGCAG”, the binding signal is 8560 fluorescence intensity (a.u.). For the sequence “GTGCTCTTTTTTTGTTTTTGTTTTTGTGTTTTTCTTGAGGCGGAGTCACCTAGTGCAG”, the binding signal is 14400 fluorescence intensity (a.u.). “TTTCCATTTTCTTTTCGTCCAACCTTGATAATACATTTTTCGGAGTCACCTAGTGCAG”: the binding signal was 10300 fluorescence intensity (a.u.). “GAAAACTACACACACTTTGACACTTGGCACTTAAATACATCGGAGTCACCTAGTGCAG”: the binding signal was 8730 fluorescence intensity (a.u.). As for “TCACTCGCCTCGTCGCCGGAAAATTGCATTCGCGCCGCTCCGGAGTCACCTAGTGCAG”, the binding signal was 9410 fluorescence intensity (a.u.). As for “CCTTTTTTCATTTTCCCCTTTCTTCTTTTTTCCATGCATACGGAGTCACCTAGTGCAG”, the binding signal was 8270 fluorescence intensity (a.u.). As to “CGCCGCGACCTCGTCCACGGTCTTCGCCACCGTCTGCATCCGGAGTCACCTAGTGCAG”, the binding signal was 9970 fluorescence intensity (a.u.). Turning to “CGGTTTTGTTCATGTCCTTATATTTTCAACGCGGAACAGTCGGAGTCACCTAGTGCAG”, the binding signal is 9110 fluorescence intensity (a.u.). Turning to “CCTTGTTGGTGTGTTGTGTGAAATATGTTCTATTTATTCACGGAGTCACCTAGTGCAG”, the binding signal is 8192 fluorescence intensity (a.u.). For the sequence “ATACTGTTTCTTCTCTTTCCAACAAGATGTCATATGATTACGGAGTCACCTAGTGCAG”, the binding signal is 9320 fluorescence intensity (a.u.).

Regarding “TTTTCTAGTGGTAAATATCCCATCTGGTCTTAGGTTCTTACGGAGTCACCTAGTGCAG”, the binding signal was 8360 fluorescence intensity (a.u.).

With “TCTCCCGTAACGCCATCCATACCCCGGCATTGCTCTGCCCCGGAGTCACCTAGTGCAG”, the binding signal was 8520 fluorescence intensity (a.u.). Then “TGTGCGTTCATAGGGGTGTGTGTGGGTGTGCGTGTGTGCGCGGAGTCACCTAGTGCAG”, with 9820 fluorescence intensity (a.u.). With “ACCACTGATATTTTTTCTTTGCTGTTTTCTGTATAGGTCGCGGAGTCACCTAGTGCAG”, the binding signal is 9960 fluorescence intensity (a.u.).

The values are drawn from PMC7819943, “Rice protein-binding microarrays: a tool to detect cis-acting elements near promoter regions in rice”.
